Measured values published in patent publication US20250269025A1 (AVENCELL THERAPEUTICS, published 2025).
Results are given in words; binding and its absence hold for the method and conditions named. Some entries that bind do so weakly or less than the wild type. Sequences can lack the tags named with a protein. Values belong to the binder of their own block, whether it stands above or below them. No end group written: not given here.

Key:
[1] = target: T1, La epitope 5B9 (SEQ ID No. 28) fused to human Fc domain (human); experiment: SPR (Biacore X100), La epitope 5B9-Fc coupled to CM5 chip, targeting module 2.47 to 200 nM
T1 sequence: KPLPEVTDEY

[2] = target: T1, La epitope 5B9 (SEQ ID No. 28) fused to human Fc domain (human); experiment: SPR, La epitope 5B9-human Fc on CM5 chip

binding [1]: binds
binding [2]: binds
B1: targeting module according to SEQ ID No. 5 (bispecific antibody)
chain: EVQLQQSGPELVKPGASVKMSCKASGYTFTDYYMKWVKQSHGKSLEWIGDIIPSNGATFYNQKFKGKATLTVDRSSSTAYMHLNSLTSEDSAVYYCTRSHLLRASWFAYWGQGTLVTVSAASGGGGSGGGGSGGGGSDFVMTQSPSSLTVTAGEKVTMSCKSSQSLLNSGNQKNYLTWYLQKPGQPPKLLIYWASTRESGVPDRFTGSGSGTDFTLTISSVQAEDLAVYYCQNDYSYPYTFGGGTKLEIKAAARGDIVMTQSPDSLAVSLGERATINCKSSQSLLNSRTPKNYLAWYQQKPGQPPKLLIYWASTRKSGVPDRFSGSGSGTDFTLTISSLQAEDVAVYYCKQSYNLLTFGGGTKVEIKGGGGSGGGGSGASAAGGGGSGGGGSQVQLVQSGAEVKKPGASVKVSCKASGYTFTHYYIYWVRQAPGQGLEWMGGVNPSNGGTHFNEKFKSRVTMTRDTSISTAYMELSRLRSDDTAVYYCARSEYDYGLGFAYWGQGTLVTVSSGGGGSHHHHHHHH
notes: also called R-TM123; muCD123 + 5B9-VL-VH

binding [1]: binds
binding [2]: binds
B2: targeting module according to SEQ ID No. 4 (bispecific antibody)
chain: GQVQLVQSGAEVKKPGASVKMSCKASGYTFTDYYMKWVKQAPGQGLEWIGDIIPSNGATFYNQKFQGRATLTVDTSTSTAYMELSSLRSEDTAVYYCTRSHLLRASWFAYWGQGTLVTVSSASGGGGSGGGGSGGGGSDIVMTQSPDSLAVSLGERATINCKSSQSLLNSGNQKNYLTWYLQKPGQPPKLLIYWASTRESGVPDRFSGSGSGTDFTLTISSVQAEDVAVYYCQNDYSYPYTFGGGTKLEIKAAARGDIVMTQSPDSLAVSLGERVTMNCKSSQSLLNSRTPKNYLAWYQQKPGQSPKLLIYWASTRKSGVPDRFSGSGSGTDFTLTISSVQAEDVAVYYCKQSYNLLTFGGGTKLEIKGGGGSGGGGSGASAAGGGGSGGGGSQVQLVESGAEVVKPGASVKLSCKASGYAFTHYYIYWIKQAPGQGLEWIGGVNPSNGGTHFNEKFKSRATLTVDTSISTAYMELSRLRSDDTAVYYCTRSEYDYGLGFAYWGQGTLVTVSSGGGGSHHHHHHHH
notes: also called huCD123_2 + rs5B9-VLVH

binding [1]: binds
binding [2]: binds
B3: targeting module according to SEQ ID No. 2 (reference) (bispecific antibody)
chain: EVQLQQSGPELVKPGASVKMSCKASGYTFTDYYMKWVKQSHGKSLEWIGDIIPSNGATFYNQKFKGKATLTVDRSSSTAYMHLNSLTSEDSAVYYCTRSHLLRASWFAYWGQGTLVTVSAASGGGGSGGGGSGGGGSDFVMTQSPSSLTVTAGEKVTMSCKSSQSLLNSGNQKNYLTWYLQKPGQPPKLLIYWASTRESGVPDRFTGSGSGTDFTLTISSVQAEDLAVYYCQNDYSYPYTFGGGTKLEIKAAARGQVQLVQSGAEVKKPGASVKVSCKASGYTFTHYYIYWVRQAPGQGLEWMGGVNPSNGGTHFNEKFKSRVTMTRDTSISTAYMELSRLRSDDTAVYYCARSEYDYGLGFAYWGQGTLVTVSSGGGGSGGGGSGGGGSDIVMTQSPDSLAVSLGERATINCKSSQSLLNSRTPKNYLAWYQQKPGQPPKLLIYWASTRKSGVPDRFSGSGSGTDFTLTISSLQAEDVAVYYCKQSYNLLTFGGGTKVEIKGPEQKLISEEDLNSAVDHHHHHH
notes: also called muCD123 + 5B9-VH-VL

binding [1]: binds
binding [2]: binds
B4: targeting module according to SEQ ID No. 6 (bispecific antibody)
chain: EVQLQQSGPELVKPGASVKMSCKASGYTFTDYYMKWVKQSHGKSLEWIGDIIPSNGATFYNQKFKGKATLTVDRSSSTAYMHLNSLTSEDSAVYYCTRSHLLRASWFAYWGQGTLVTVSAASGGGGSGGGGSGGGGSDFVMTQSPSSLTVTAGEKVTMSCKSSQSLLNSGNQKNYLTWYLQKPGQPPKLLIYWASTRESGVPDRFTGSGSGTDFTLTISSVQAEDLAVYYCQNDYSYPYTFGGGTKLEIKAAARGDIVMTQSPDSLAVSLGERVTMNCKSSQSLLNSRTPKNYLAWYQQKPGQSPKLLIYWASTRKSGVPDRFSGSGSGTDFTLTISSVQAEDVAVYYCKQSYNLLTFGGGTKLEIKGGGGSGGGGSGASAAGGGGSGGGGSQVQLVESGAEVVKPGASVKLSCKASGYAFTHYYIYWIKQAPGQGLEWIGGVNPSNGGTHFNEKFKSRATLTVDTSISTAYMELSRLRSDDTAVYYCTRSEYDYGLGFAYWGQGTLVTVSSGGGGSHHHHHHHH
notes: also called muCD123 + rs5B9-VL-VH

binding [1]: binds
binding [2]: binds
B5: targeting module according to SEQ ID No. 3 (bispecific antibody)
chain: GQVQLVQSGAEVKKPGSSVKVSCKASGYTFTDYYIHWVRQAPGQGLEWMGDIIPSNGATFYNQRFKGRVTITADESTSTAYMELSSLRSEDTAVYYCTRSHLLRASWFAYWGQGTLVTVSSASGGGGSGGGGSGGGGSDIVMTQTPLSLSVTPGQPASISCRSSQSLLNSGNQKNYLTWYLQKPGQSPQLLIYWASTRFIGVPDRFSGSGSGTDFTLKISRVEAEDVGVYYCQNDYSYPYTFGQGTKLEIKAAARGDIVMTQSPDSLAVSLGERATINCKSSQSLLNSRTPKNYLAWYQQKPGQPPKLLIYWASTRKSGVPDRFSGSGSGTDFTLTISSLQAEDVAVYYCKQSYNLLTFGGGTKVEIKGGGGSGGGGSGASAAGGGGSGGGGSQVQLVQSGAEVKKPGASVKVSCKASGYTFTHYYIYWVRQAPGQGLEWMGGVNPSNGGTHFNEKFKSRVTMTRDTSISTAYMELSRLRSDDTAVYYCARSEYDYGLGFAYWGQGTLVTVSSGGGGSHHHHHHHH
notes: also called huCD123_1 + 5B9-VL-VH
